# Results: article PMC9599549
# The chains behind the UniProt entries cited, without tags or fusion partners.
# UniProt Q9UN81: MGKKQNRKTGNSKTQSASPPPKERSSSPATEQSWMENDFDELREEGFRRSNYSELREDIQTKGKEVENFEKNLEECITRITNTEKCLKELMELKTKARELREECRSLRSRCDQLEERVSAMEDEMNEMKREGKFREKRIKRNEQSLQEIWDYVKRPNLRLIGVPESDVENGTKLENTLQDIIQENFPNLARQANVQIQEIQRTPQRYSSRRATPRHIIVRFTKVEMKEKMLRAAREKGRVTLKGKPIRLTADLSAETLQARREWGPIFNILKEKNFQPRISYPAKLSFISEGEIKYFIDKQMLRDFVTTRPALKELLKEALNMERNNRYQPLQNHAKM
# These are yes or no findings as the source states them, for the method shown. Binding seen in cells or lysates may run through a third protein. Some binding calls cover weakened binding; strength is not graded here. Tags and fused reporters may be left off the sequences shown.
# Target: T1, TREX1 with an HA tag at its C terminus (vrTREX1-HA) (UniProt Q9NSU2)
# T1 sequence: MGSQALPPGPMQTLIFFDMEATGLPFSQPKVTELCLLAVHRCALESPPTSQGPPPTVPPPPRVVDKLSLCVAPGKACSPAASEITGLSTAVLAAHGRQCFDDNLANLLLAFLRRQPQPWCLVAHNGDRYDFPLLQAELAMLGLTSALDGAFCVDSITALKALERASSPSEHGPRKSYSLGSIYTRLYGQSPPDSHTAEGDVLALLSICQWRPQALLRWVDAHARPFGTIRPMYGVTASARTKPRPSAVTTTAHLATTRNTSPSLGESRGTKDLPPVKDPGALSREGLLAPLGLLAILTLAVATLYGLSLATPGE
# Test: co-IP; HEK293T cells transfected with TREX1 (600 ng), Nef (500 ng) and/or ORF1p-expressing vectors (400 ng), harvested at 48 h; lysis in 50 mM Tris-HCl pH 7.5, 150 mM NaCl, 0.5% NP-40; anti-HA magnetic beads overnight; six washes (20 mM Tris-HCl pH 7.5, 100 mM NaCl, 0.1 mM EDTA, 0.05% Tween 20); elution with 50 mM glycine-HCl pH 2.5; Western blot
substance,measurement,value
LINE-1 open reading frame 1 protein (ORF1p) expressed from an ORF1p-expressing vector that is not named for the co-IP of Fig. 2E (from UniProt Q9UN81 1-338),binding,binds
